Reference: PMC5601636
These are yes or no findings as the source states them, for the method shown. Binding seen in cells or lysates may run through a third protein. Some results given as binding are weak or reduced against the parent protein; the word gives no strength. Each block holds one binder with its values, some of them ahead of it.

Target: nonerythroid αII spectrin (human (endogenous in A549)) (UniProt Q13813)
Assay: co-IP; lysate (20 mM Tris-HCl, 150 mM NaCl, 0.5% Nonidet P-40, 2 mM EDTA, 0.5 mM DTT, pH 7.5) precipitated with anti-αII Sp antibody or IgG and protein G-agarose; western blot for αII Sp, FANCA and XPF; cells transfected with scrambled ncRNA, miR-128-3p mimic, miR-128-3p inhibitor or SPTAN1 siRNA

binding: binds
B1: FANCA (protein, UniProt O15360 1-1455)
chain: MSDSWVPNSASGQDPGGRRRAWAELLAGRVKREKYNPERAQKLKESAVRLLRSHQDLNALLLEVEGPLCKKLSLSKVIDCDSSEAYANHSSSFIGSALQDQASRLGVPVGILSAGMVASSVGQICTAPAETSHPVLLTVEQRKKLSSLLEFAQYLLAHSMFSRLSFCQELWKIQSSLLLEAVWHLHVQGIVSLQELLESHPDMHAVGSWLFRNLCCLCEQMEASCQHADVARAMLSDFVQMFVLRGFQKNSDLRRTVEPEKMPQVTVDVLQRMLIFALDALAAGVQEESSTHKIVRCWFGVFSGHTLGSVISTDPLKRFFSHTLTQILTHSPVLKASDAVQMQREWSFARTHPLLTSLYRRLFVMLSAEELVGHLQEVLETQEVHWQRVLSFVSALVVCFPEAQQLLEDWVARLMAQAFESCQLDSMVTAFLVVRQAALEGPSAFLSYADWFKASFGSTRGYHGCSKKALVFLFTFLSELVPFESPRYLQVHILHPPLVPGKYRSLLTDYISLAKTRLADLKVSIENMGLYEDLSSAGDITEPHSQALQDVEKAIMVFEHTGNIPVTVMEASIFRRPYYVSHFLPALLTPRVLPKVPDSRVAFIESLKRADKIPPSLYSTYCQACSAAEEKPEDAALGVRAEPNSAEEPLGQLTAALGELRASMTDPSQRDVISAQVAVISERLRAVLGHNEDDSSVEISKIQLSINTPRLEPREHMAVDLLLTSFCQNLMAASSVAPPERQGPWAALFVRTMCGRVLPAVLTRLCQLLRHQGPSLSAPHVLGLAALAVHLGESRSALPEVDVGPPAPGAGLPVPALFDSLLTCRTRDSLFFCLKFCTAAISYSLCKFSSQSRDTLCSCLSPGLIKKFQFLMFRLFSEARQPLSEEDVASLSWRPLHLPSADWQRAALSLWTHRTFREVLKEEDVHLTYQDWLHLELEIQPEADALSDTERQDFHQWAIHEHFLPESSASGGCDGDLQAACTILVNALMDFHQSSRSYDHSENSDLVFGGRTGNEDIISRLQEMVADLELQQDLIVPLGHTPSQEHFLFEIFRRRLQALTSGWSVAASLQRQRELLMYKRILLRLPSSVLCGSSFQAEQPITARCEQFFHLVNSEMRNFCSHGGALTQDITAHFFRGLLNACLRSRDPSLMVDFILAKCQTKCPLILTSALVWWPSLEPVLLCRWRRHCQSPLPRELQKLQEGRQFASDFLSPEAASPAPNPDWLSAAALHFAIQQVREENIRKQLKKLDCEREELLVFLFFFSLMGLLSSHLTSNSTTDLPKAFHVCAAILECLEKRKISWLALFQLTESDLRLGRLLLRVAPDQHTRLLPFAFYSLLSYFHEDAAIREEAFLHVAVDMYLKLVQLFVAGDTSTVSPPAGRSLELKGQGNPVELITKARLFLLQLIPRCPKKSFSHVAELLADRGDCDPEVSAALQSRQQAAPDADLSQEPHLF

binding: binds
B2: XPF (protein, UniProt Q92889 1-916)
chain: MESGQPARRIAMAPLLEYERQLVLELLDTDGLVVCARGLGADRLLYHFLQLHCHPACLVLVLNTQPAEEEYFINQLKIEGVEHLPRRVTNEITSNSRYEVYTQGGVIFATSRILVVDFLTDRIPSDLITGILVYRAHRIIESCQEAFILRLFRQKNKRGFIKAFTDNAVAFDTGFCHVERVMRNLFVRKLYLWPRFHVAVNSFLEQHKPEVVEIHVSMTPTMLAIQTAILDILNACLKELKCHNPSLEVEDLSLENAIGKPFDKTIRHYLDPLWHQLGAKTKSLVQDLKILRTLLQYLSQYDCVTFLNLLESLRATEKAFGQNSGWLFLDSSTSMFINARARVYHLPDAKMSKKEKISEKMEIKEGEETKKELVLESNPKWEALTEVLKEIEAENKESEALGGPGQVLICASDDRTCSQLRDYITLGAEAFLLRLYRKTFEKDSKAEEVWMKFRKEDSSKRIRKSHKRPKDPQNKERASTKERTLKKKKRKLTLTQMVGKPEELEEEGDVEEGYRREISSSPESCPEEIKHEEFDVNLSSDAAFGILKEPLTIIHPLLGCSDPYALTRVLHEVEPRYVVLYDAELTFVRQLEIYRASRPGKPLRVYFLIYGGSTEEQRYLTALRKEKEAFEKLIREKASMVVPEEREGRDETNLDLVRGTASADVSTDTRKAGGQEQNGTQQSIVVDMREFRSELPSLIHRRGIDIEPVTLEVGDYILTPEMCVERKSISDLIGSLNNGRLYSQCISMSRYYKRPVLLIEFDPSKPFSLTSRGALFQEISSNDISSKLTLLTLHFPRLRILWCPSPHATAELFEELKQSKPQPDAATALAITADSETLPESEKYNPGPQDFLLKMPGVNAKNCRSLMHHVKNIAELAALSQDELTSILGNAANAKQLYDFIHTSFAEVVSKGKGKK
